Laboratory results taken from PubChem BioAssay AID2549 (National Center for Advancing Translational Sciences (NCATS), 2010).
Hit rate of the full screen: of about 240,000 compounds, about 1,300 (0.54%) were called active. Inconclusive means that the source gave no clear call. Such entries were picked first, then a sample of the others. Calls follow the shape of the dose curve; as a rule, active = well fitted inhibition curve with a large enough effect; inconclusive = small, poorly fitted or top-dose-only effect; inactive = flat fitted curve, though single readings scatter. Potencies beside an inconclusive call are fits to weak or partial responses and may not hold up. Some compounds were tested as several samples or in several runs, with calls that do not always agree.

Amino acid sequences for entries named in this document (tags omitted). A change or cut given only in a name is not applied to a line headed by its entry.
UniProt P46063: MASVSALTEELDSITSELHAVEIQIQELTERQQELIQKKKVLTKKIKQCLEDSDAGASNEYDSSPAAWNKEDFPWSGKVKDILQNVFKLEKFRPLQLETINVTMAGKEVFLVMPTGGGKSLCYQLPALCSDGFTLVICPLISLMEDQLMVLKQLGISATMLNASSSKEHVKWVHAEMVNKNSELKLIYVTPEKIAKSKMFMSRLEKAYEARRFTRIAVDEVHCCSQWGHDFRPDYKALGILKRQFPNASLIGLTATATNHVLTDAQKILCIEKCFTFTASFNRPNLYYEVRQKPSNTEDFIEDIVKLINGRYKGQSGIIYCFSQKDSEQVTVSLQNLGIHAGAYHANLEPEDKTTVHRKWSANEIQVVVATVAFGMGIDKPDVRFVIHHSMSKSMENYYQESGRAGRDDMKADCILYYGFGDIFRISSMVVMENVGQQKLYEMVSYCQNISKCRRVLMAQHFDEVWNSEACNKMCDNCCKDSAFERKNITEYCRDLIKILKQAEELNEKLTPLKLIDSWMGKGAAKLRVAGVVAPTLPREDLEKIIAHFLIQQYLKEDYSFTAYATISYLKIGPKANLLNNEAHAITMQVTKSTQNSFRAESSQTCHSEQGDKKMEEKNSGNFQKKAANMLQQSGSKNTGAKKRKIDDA

target: ATP-dependent DNA helicase Q1 (Homo sapiens) (UniProt P46063); experiment: qHTS Assay for Inhibitors of RecQ-Like Dna Helicase 1 (RECQ1); conditions: RECQ1 DNA unwinding, red fluorescence kinetic read; series mostly up to 57.3 µM; activity, negative = inhibition: at the top concentration; also: nearly all actives have a fitted effect of over 30% in size;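 as to activity, negative = inhibition: plate controls were vehicle for no effect and no enzyme for full effect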
Method in brief: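 50 nM RECQ1T1 preincubated 15 min with compound in Tris pH 8.0 buffer with MgCl2, DTT, Tween-20 and 2.5 ug/ml poly(dI-dC); started with 200 nM TAMRA/BHQ-2 forked duplex and 2 mM ATP. Unwinding read as fluorescence (525/598 nm), two reads 2 h apart.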
Potency is read from the fitted curve at half-maximal effect.

Row | Structure (SMILES) | Potency | activity, negative = inhibition | outcome
1 | Clc1cccc(N2CCNCC2)c1 | inactive |  | 
2 | O=C(N/N=C/c1c(O)n(Cc2ccco2)c(=O)[nH]c1=O)c1ccccc1O | inconclusive: 39.8 µM [inhibitor, single point] |  | 
3 | O=C1NC(=O)N(c2ccc(Cl)cc2)C(=O)/C1=C\c1ccc(Sc2nc3ccccc3[nH]2)o1 | active: 25.1 µM |  | 
4 | Cn1cccc1/C=C1\C(=O)NC(=O)N(Cc2ccccc2Cl)C1=O | inconclusive: 35.5 µM [inhibitor, single point] |  | 
5 | CC1(C)OC1COc1c2occc2cc2ccc(=O)oc12 (stereo not given) | inconclusive: 5.01 µM [inhibitor, single point] |  | 
6 | CC(C)C[C@H]1C(=O)N2CCC[C@@H]2[C@@]2(O)O[C@](NC(=O)[C@@H]3C=C4c5cccc6[nH]cc(c56)C[C@@H]4N(C)C3)(C(C)C)C(=O)N12 | inconclusive: 10 µM [inhibitor, single point] |  | 
7 | C[N+]1([O-])[C@@H]2CC(OC(=O)[C@@H](CO)c3ccccc3)C[C@@H]1[C@H]1O[C@H]12 (stereo not given in full) |  | inactive: -6.69% [at 25.9 µM] | 
8 | O=P(CCl)(Nc1ccccc1)C(Cl)(Cl)Cl (stereo not given) | inconclusive: 0.631 µM [inhibitor, full curve] |  | 
9 | CC[C@H]1C(=O)OC[C@H]1Cc1cncn1C |  |  | inactive [at 25.9 µM]
10 | CN1CCN(c2ccc(/C=C3\C(=O)NC(=S)N(c4cccc(Br)c4)C3=O)o2)CC1 | active: 14.1 µM |  | 
11 | Cc1sc2c(c1C)C(c1cccs1)=NCC(=O)N2CC(=O)NCc1cccs1 |  | inactive: -5.71% | 
12 | C/C=C1/C[C@@H](C)[C@@](C)(O)C(=O)OCC2=CCN3CC[C@@H](OC1=O)[C@@H]23 | inconclusive: 28.2 µM [inhibitor, single point] |  | 
13 | Oc1cc(O)c2c(c1)OC(c1cc(O)c(O)c(O)c1)C(O)C2 (stereo not given) | active: 35.5 µM |  | 
14 | COc1ccc2[nH]c3c(c2c1)CCN=C3C | inconclusive: 10 µM [inhibitor, partial curve] |  | 
15 | CCCCNC(=O)c1c(N)n(CCCOC)c2nc3ccccc3nc12 | inconclusive: 35.5 µM [inhibitor, single point] |  | 
16 | O=c1c2ccccc2nc(/C=C/c2ccco2)n1-c1ccccc1O | inconclusive: 39.8 µM [inhibitor, single point] |  | 
17 | O=C1CCCC2C3CCCN4CCCC(CN12)C34 (stereo not given) |  | inactive: 6.62% | 
18 | CC(C)Nc1ccc(Nc2ccccc2)cc1 | inconclusive: 17.8 µM [inhibitor, partial curve, poor fit] |  | 
19 | CCOC(=O)c1c(-n2c(C)cc(C=C3C(=O)NC(=S)NC3=O)c2C)sc2c1CCCC2 | inconclusive: 35.5 µM [inhibitor, single point] |  | 
20 | Cc1ccc(N2C(=O)/C(=C/c3ccc(CN(CCC#N)S(C)(=O)=O)o3)C(=O)NC2=S)cc1C | active: 25.1 µM |  | 

A different layout for some results above:

| Row | Structure (SMILES) | Potency | activity, negative = inhibition | outcome |
| --- | --- | --- | --- | --- |
| 2 | O=C(N/N=C/c1c(O)n(Cc2ccco2)c(=O)[nH]c1=O)c1ccccc1O | inconclusive: 39.8 µM [inhibitor, single point] |  |  |
| 5 | CC1(C)OC1COc1c2occc2cc2ccc(=O)oc12 (stereo not given) | inconclusive: 5.01 µM [inhibitor, single point] |  |  |
| 7 | C[N+]1([O-])[C@@H]2CC(OC(=O)[C@@H](CO)c3ccccc3)C[C@@H]1[C@H]1O[C@H]12 (stereo not given in full) |  | inactive: -6.69% [at 25.9 µM] |  |

Next records

Row | Structure (SMILES) | Potency | activity, negative = inhibition | outcome
21 | O=C1NC(=O)N(Cc2ccc(F)cc2)C(=O)/C1=C\c1ccoc1 | active: 25.1 µM |  | 
22 | Cc1oc2ccc(OC(=O)N(C)C)cc2c1C(=O)OC(C)C |  | inactive: -7.77% | 
23 | COC1C(O)C(C)O[C@H](OC2CC[C@@]3(C=O)C4CC[C@]5(C)C(C6=CC(=O)OC6)CC[C@@]5(O)C4CC[C@@H]3C2)C1O (stereo not given in full) |  | inactive: -4.25% | 
24 | CC[C@]1(O)CC(O[C@@H]2CC(N(C)C)C(O)C(C)O2)c2c(cc3c(c2O)C(=O)c2c(O)cccc2C3=O)C1C(=O)OC (stereo not given in full) | active: 10 µM |  | 
25 | CCn1nc(/C=C/c2ccccc2)nc2c(=O)n(C)c(=O)nc1-2 |  | inactive: -19.4% | 
26 | CCS(=O)(=O)NCc1nnc2n1-c1ccc(Cl)cc1C(c1ccccc1)=NC2 | inconclusive: 0.0631 µM [inhibitor, full curve, poor fit] |  | 
28 | Cc1ccc(C=C2C(Cl)=C(Cl)C(Cl)=C2Cl)cc1 | active: 10 µM |  | 
29 | Cc1ccc(N2C(=O)NC(=O)/C(=C\C=C\c3ccco3)C2=O)cc1C | active: 28.2 µM |  | 
30 | O=C1NC(=S)NC(=O)C1=Cc1cccc2cc3ccccc3cc12 |  | inactive: -4.23% | 
31 | Cl.Cl.Cl.Cl.Cl.Cl.N.N.N.N.NNNNN.NNNNN.O.O.[Ru].[Ru].[Ru] | active: 12.6 µM |  | 
32 | COP(=O)(OC)c1nc(-c2cccc3ccccc23)oc1NCCc1ccccc1 | inconclusive: 39.8 µM [inhibitor, single point] |  | 
33 | O=C1NC(=O)C(=Cc2ccc(Sc3ccccc3)o2)C(=O)N1 |  | inactive: -1.08% | 
34 | Cn1cccc1/C=C1\C(=O)NC(=O)N(CCC2=CCCCC2)C1=O | active: 39.8 µM |  | 
35 | OC1/C(=C/c2ccc(Cl)cc2Cl)N2CCC1CC2 (stereo not given) |  | inactive: -12.5% | 
36 | COc1ccc(C(=O)N2CCCC2=O)cc1 | inconclusive: 0.224 µM [inhibitor, full curve] |  | 
37 | C=CCN1CCc2cccc3c2C1Cc1ccc(O)c(O)c1-3 (stereo not given) | inconclusive: 3.55 µM [inhibitor, full curve, poor fit] |  | 
38 | CCN(CC)CCCN=C(C)c1c(O)n(-c2ccc(C)cc2)c(=O)[nH]c1=O | inconclusive: 39.8 µM [inhibitor, partial curve] |  | 
39 | NCC(O)c1cc(O)c(O)cc1F (stereo not given) | inconclusive: 1.12 µM [inhibitor, full curve, poor fit] |  | 
40 | CC(C)CCNC(=O)c1c(N)n(CC2CCCO2)c2nc3ccccc3nc12 (stereo not given) | inconclusive: 39.8 µM [inhibitor, single point] |  | 
